Results published in the supplement of paper PMC4604168 (melanoma cell lines).
Some of the results follow. Repeats are few or missing, and single values can be far off.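 Cells were imaged in 1,536-well plates, and nuclei stained with an antibody against cleaved PARP were counted against all DNA-stained nuclei to give the apoptosis fraction. Screening doses were chosen to leave most cells alive, and resting and induced cleaved-PARP levels differ strongly between cell lines.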

Test system: WM3619
Assay: cleaved PARP positive nuclei fraction relative to DMSO control; melanoma cells; higher = more apoptosis
Details: library dose: low library concentration; 72 h

Structure (SMILES) | cleaved PARP positive nuclei fraction [%]
Cn1c(Nc2ccc(C(F)(F)F)cc2)nc2cc(Oc3ccnc(-c4ncc(C(F)(F)F)[nH]4)c3)ccc21 + Nc1cccc2c1CN(C1CCC(=O)NC1=O)C2=O [lenalidomide] (first compound 0.08 µM, partner dose 1 µM) | 245
Clc1ccc(Nc2nnc(Cc3ccncc3)c3ccccc23)cc1 [vatalanib] + Cc1nc(Nc2ncc(C(=O)Nc3c(C)cccc3Cl)s2)cc(N2CCN(CCO)CC2)n1 [dasatanib] (first compound 2 µM, partner dose 0.004 µM) | 101
OCc1c[nH]c2ccccc12 [Indole-3-carbinol] + O=S(=O)(c1ccccc1)N(CC(F)(F)F)c1ccc(C(O)(C(F)(F)F)C(F)(F)F)cc1 [T0901317] (first compound 0.8 µM, partner dose 1.4 µM) | 108
C=CCNC1=C2C[C@@H](C)C[C@H](OC)[C@H](O)[C@@H](C)/C=C(\C)[C@H](OC(N)=O)[C@@H](OC)/C=C\C=C(/C)C(=O)NC(=CC1=O)C2=O [Tanespimycin] + Nc1cccc2c1CN(C1CCC(=O)NC1=O)C2=O [lenalidomide] (first compound 0.002 µM, partner dose 1 µM) | 120
C=CCNC1=C2C[C@@H](C)C[C@H](OC)[C@H](O)[C@@H](C)/C=C(\C)[C@H](OC(N)=O)[C@@H](OC)/C=C\C=C(/C)C(=O)NC(=CC1=O)C2=O [Tanespimycin] + OCc1c[nH]c2ccccc12 [Indole-3-carbinol] (first compound 0.002 µM, partner dose 0.8 µM) | 96.6
C=CCNC1=C2C[C@@H](C)C[C@H](OC)[C@H](O)[C@@H](C)/C=C(\C)[C@H](OC(N)=O)[C@@H](OC)/C=C\C=C(/C)C(=O)NC(=CC1=O)C2=O [Tanespimycin] + CC(=O)c1c(C)c2cnc(Nc3ccc(N4CCNCC4)cn3)nc2n(C2CCCC2)c1=O [palbociclib] (first compound 0.002 µM, partner dose 0.04 µM) | 147
C#Cc1cccc(Nc2ncnc3cc(OCCOC)c(OCCOC)cc23)c1 [erlotinib] + Cn1c(Nc2ccc(C(F)(F)F)cc2)nc2cc(Oc3ccnc(-c4ncc(C(F)(F)F)[nH]4)c3)ccc21 [CHIR265] (first compound 0.8 µM, partner dose 0.08 µM) | 222
C#Cc1cccc(Nc2ncnc3cc(OCCOC)c(OCCOC)cc23)c1 [erlotinib] + Cn1nnc2c(C(N)=O)ncn2c1=O [temozolomide] (first compound 0.8 µM, partner dose 2 µM) | 92.5
Cn1c(Nc2ccc(C(F)(F)F)cc2)nc2cc(Oc3ccnc(-c4ncc(C(F)(F)F)[nH]4)c3)ccc21 + COCC[n+]1c2c(n(Cc3cnccn3)c1C)C(=O)c1ccccc1C2=O [YM155] (first compound 0.08 µM, partner dose 0.0004 µM) | 150
Clc1ccc(Nc2nnc(Cc3ccncc3)c3ccccc23)cc1 [vatalanib] + C#Cc1cccc(Nc2ncnc3cc(OCCOC)c(OCCOC)cc23)c1 [erlotinib] (first compound 2 µM, partner dose 0.8 µM) | 103
C=CCNC1=C2C[C@@H](C)C[C@H](OC)[C@H](O)[C@@H](C)/C=C(\C)[C@H](OC(N)=O)[C@@H](OC)/C=C\C=C(/C)C(=O)NC(=CC1=O)C2=O [Tanespimycin] + CC(C)CCN1c2nc(Nc3cc(F)c(O)c(F)c3)ncc2N(C)C(=O)C1C [BID1870] (first compound 0.002 µM, partner dose 0.2 µM) | 122

A run of entries of the results above, as a working copy:
Structure (SMILES) | cleaved PARP positive nuclei fraction [%]
Cn1c(Nc2ccc(C(F)(F)F)cc2)nc2cc(Oc3ccnc(-c4ncc(C(F)(F)F)[nH]4)c3)ccc21 + COCC[n+]1c2c(n(Cc3cnccn3)c1C)C(=O)c1ccccc1C2=O [YM155] (first compound 0.08 µM, partner dose 0.0004 µM) | 150
Clc1ccc(Nc2nnc(Cc3ccncc3)c3ccccc23)cc1 [vatalanib] + C#Cc1cccc(Nc2ncnc3cc(OCCOC)c(OCCOC)cc23)c1 [erlotinib] (first compound 2 µM, partner dose 0.8 µM) | 103
